Some of these results come from one statement about several compounds together. For at least one compound, name, drawing or mass did not settle the structure.
Tested on: PRRSV BB0907 strain
Assay: Treatment of PRRSV-infected piglets by oral administration
Format: in vivo
Settings: oral daily from 24 h after infection, sodium oxamate 7 mg or Galloflavin 10 μg, days 0-14

Row | SMILES | body temperature (rectal)
1 | O=c1oc2c(cc1O)oc(=O)c1cc(O)c(O)c(O)c12 [Galloflavin] | ≤ 40.5 °C
2 | NC(=O)C(=O)[O-].[Na+] [sodium oxamate] | ≤ 40.5 °C
